Laboratory results published in the supplement of paper PMC6078165.
The reference is the same well before dosing, and untreated signal decays as well.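 Labels refer to human fibroblasts, largely primary: uterine (C12385, HUF), lung (H6013), bone (Hs27A), adrenal (HADF), skin (WS1), plus mammary HMF and breast cancer-associated Hs343T. Cancer lines are basal-like or mesenchymal-like triple-negative breast cancer. The paper counts as hits responses shifting over 3x the replicate standard deviation. The tissue of the other fibroblasts is not given here.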

Test system: MDAMB468
Assay: relative JC-1 red fluorescence (viability) vs pre-drug, coculture with fibroblast (fraction); higher = more viable cancer cells
Experimental: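 JC-1 labelled TNBC cells cocultured 1:1 (1,500 cells each) with CellTrace Violet stained primary or stromal fibroblasts in 384-well plates in FluoroBrite medium, treated with one of 42 anticancer drugs at 0.1, 1, 10 or 100 uM. JC-1 red fluorescence (mitochondrial integrity in cancer cells only) was read by plate reader every 8 h for 72 h. Values are normalised to each well's pre-drug value. The stock of one drug was tenfold lower, so its dose labels may be too high.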

CC(C)C[C@H](NC(=O)[C@H](Cc1ccccc1)NC(=O)c1cnccn1)B(O)O [Bortezomib]
relative JC-1 red fluorescence
Conditions	8 h	16 h	24 h	32 h	40 h	48 h	56 h	64 h	72 h
0.1 µM, coculture fibroblast: C12385	0.873	0.837	0.834	0.806	0.789	0.845	0.843	0.877	0.905
0.1 µM, coculture fibroblast: H6013	0.858	0.875	0.845	0.826	0.879	0.923	0.8466	0.881	0.878
0.1 µM, coculture fibroblast: H6019	0.82	0.77	0.808	0.835	0.865	0.89	0.871	0.852	0.848
0.1 µM, coculture fibroblast: H6076	0.8997	0.896	0.81	0.819	0.768	0.784	0.776	0.78	0.837
0.1 µM, coculture fibroblast: H6231	0.81	0.867	0.771	0.804	0.731	0.737	0.724	0.714	0.757
0.1 µM, coculture fibroblast: HADF	0.859	0.849	0.812	0.789	0.8106	0.8288	0.8017	0.82	0.748
0.1 µM, coculture fibroblast: HCFa	0.834	0.772	0.6948	0.658	0.67	0.6952	0.674	0.661	0.602
0.1 µM, coculture fibroblast: HCPF	0.8342	0.89915	0.783	0.774	0.691	0.666	0.632	0.63	0.66
0.1 µM, coculture fibroblast: HHSteC	0.8766	0.831	0.779	0.732	0.743	0.77	0.718	0.702	0.644
0.1 µM, coculture fibroblast: HMF	0.82	0.897	0.7617	0.749	0.669	0.6667	0.656	0.66	0.696
0.1 µM, coculture fibroblast: HPFa	0.867	0.839	0.818	0.766	0.803	0.832	0.792	0.796	0.726
0.1 µM, coculture fibroblast: HUF	0.893	0.784	0.735	0.693	0.666	0.701	0.688	0.705	0.707
0.1 µM, coculture fibroblast: Hs5	0.9506	0.94	0.819	0.8	0.726	0.704	0.697	0.678	0.724
0.1 µM, coculture fibroblast: Hs27A	0.832	0.888	0.852	0.866	0.859	0.878	0.852	0.856	0.774
0.1 µM, coculture fibroblast: Hs343T	0.836	0.886	0.744	0.749	0.686	0.671	0.66	0.679	0.707
0.1 µM, coculture fibroblast: WS1	0.861	0.78	0.746	0.712	0.698	0.734	0.746	0.77	0.804
1 µM, coculture fibroblast: C12385	0.8469	0.754	0.544	0.444	0.388	0.39	0.36	0.354	0.357
1 µM, coculture fibroblast: H6013	0.827	0.735	0.674	0.652	0.658	0.662	0.644	0.644	0.574
1 µM, coculture fibroblast: H6019	0.779	0.568	0.537	0.511	0.494	0.504	0.486	0.486	0.484
1 µM, coculture fibroblast: H6076	0.886	0.861	0.744	0.738	0.667	0.685	0.663	0.657	0.75
1 µM, coculture fibroblast: H6231	0.8016	0.8996	0.718	0.635	0.541	0.521	0.472	0.448	0.457
1 µM, coculture fibroblast: HADF	0.828	0.764	0.633	0.558	0.515	0.495	0.462	0.463	0.402
1 µM, coculture fibroblast: HCFa	0.81103	0.669	0.5849	0.5401	0.517	0.523	0.496	0.471	0.4045
1 µM, coculture fibroblast: HCPF	0.82326	0.9031	0.669	0.685	0.601	0.577	0.545	0.534	0.537
1 µM, coculture fibroblast: HHSteC	0.859	0.757	0.681	0.641	0.626	0.626	0.567	0.544	0.479
1 µM, coculture fibroblast: HMF	0.8003	0.865	0.671	0.66	0.569	0.553	0.522	0.514	0.534
1 µM, coculture fibroblast: HPFa	0.903	0.8364	0.754	0.6942	0.675	0.676	0.617	0.602	0.525
1 µM, coculture fibroblast: HUF	0.905	0.775	0.599	0.52	0.479	0.468	0.439	0.436	0.423
1 µM, coculture fibroblast: Hs5	0.983	0.873	0.698	0.625	0.526	0.493	0.468	0.444	0.48
1 µM, coculture fibroblast: Hs27A	0.83	0.733	0.721	0.712	0.66	0.637	0.596	0.574	0.502
1 µM, coculture fibroblast: Hs343T	0.859	0.936	0.684	0.601	0.475	0.451	0.417	0.417	0.426
1 µM, coculture fibroblast: WS1	0.833	0.678	0.529	0.467	0.421	0.406	0.392	0.389	0.385
10 µM, coculture fibroblast: C12385	0.7861	0.6352	0.546	0.487	0.446	0.445	0.409	0.396	0.391
10 µM, coculture fibroblast: H6013	0.8102	0.732	0.672	0.618	0.619	0.63	0.604	0.603	0.541
10 µM, coculture fibroblast: H6019	0.728	0.651	0.659	0.672	0.679	0.713	0.698	0.703	0.709
10 µM, coculture fibroblast: H6076	0.8501	0.8149	0.688	0.681	0.607	0.606	0.588	0.586	0.64
10 µM, coculture fibroblast: H6231	0.8362	0.85	0.72	0.682	0.552	0.522	0.488	0.461	0.479
10 µM, coculture fibroblast: HADF	0.8022	0.682	0.561	0.479	0.433	0.427	0.393	0.381	0.319
10 µM, coculture fibroblast: HCFa	0.771	0.65	0.56	0.5	0.476	0.477	0.446	0.427	0.379
10 µM, coculture fibroblast: HCPF	0.79	0.8182	0.723	0.711	0.595	0.565	0.514	0.491	0.495
10 µM, coculture fibroblast: HHSteC	0.795	0.663	0.566	0.482	0.453	0.457	0.411	0.387	0.339
10 µM, coculture fibroblast: HMF	0.765	0.804	0.678	0.674	0.577	0.566	0.541	0.541	0.55
10 µM, coculture fibroblast: HPFa	0.888	0.77	0.705	0.629	0.617	0.614	0.566	0.553	0.488
10 µM, coculture fibroblast: HUF	0.824	0.677	0.552	0.48	0.442	0.444	0.413	0.41	0.403
10 µM, coculture fibroblast: Hs5	0.914	0.805	0.746	0.7249	0.639	0.6073	0.5793	0.5499	0.58668
10 µM, coculture fibroblast: Hs27A	0.828	0.761	0.702	0.657	0.615	0.608	0.572	0.553	0.468
10 µM, coculture fibroblast: Hs343T	0.809	0.812	0.683	0.681	0.599	0.584	0.546	0.547	0.544
10 µM, coculture fibroblast: WS1	0.776	0.646	0.559	0.503	0.455	0.442	0.417	0.405	0.401
100 µM, coculture fibroblast: C12385	0.8402	0.716	0.538	0.452	0.3985	0.3874	0.3442	0.3223	0.3119
100 µM, coculture fibroblast: H6013	0.884	0.799	0.752	0.686	0.683	0.678	0.647	0.632	0.561
100 µM, coculture fibroblast: H6019	0.7956	0.629	0.604	0.583	0.572	0.58	0.5567	0.5618	0.5631
100 µM, coculture fibroblast: H6076	0.9182	0.879	0.838	0.825	0.823	0.702	0.82	0.811	0.745
100 µM, coculture fibroblast: H6231	0.814	0.89	0.779	0.773	0.663	0.63	0.572	0.549	0.558
100 µM, coculture fibroblast: HADF	0.864	0.745	0.686	0.63	0.596	0.575	0.526	0.505	0.431
100 µM, coculture fibroblast: HCFa	0.867	0.727	0.668	0.645	0.643	0.644	0.597	0.568	0.505
100 µM, coculture fibroblast: HCPF	0.8559	0.8699	0.748	0.752	0.666	0.624	0.578	0.566	0.573
100 µM, coculture fibroblast: HHSteC	0.884	0.769	0.719	0.666	0.626	0.638	0.561	0.537	0.473
100 µM, coculture fibroblast: HMF	0.811	0.8399	0.7321	0.693	0.588	0.558	0.534	0.525	0.538
100 µM, coculture fibroblast: HPFa	0.9161	0.849	0.8425	0.7487	0.722	0.727	0.659	0.65	0.57
100 µM, coculture fibroblast: HUF	0.908	0.747	0.6642	0.604	0.552	0.539	0.5	0.489	0.478
100 µM, coculture fibroblast: Hs5	0.817	0.906	0.779	0.739	0.643	0.604	0.574	0.54	0.58
100 µM, coculture fibroblast: Hs27A	0.8184	0.73634	0.661	0.603	0.543	0.519	0.479	0.454	0.383
100 µM, coculture fibroblast: Hs343T	0.822	0.886	0.794	0.779	0.648	0.638	0.606	0.595	0.607
100 µM, coculture fibroblast: WS1	0.842	0.635	0.53	0.435	0.374	0.351	0.32	0.303	0.296
